Measurements taken from PMC4861344.
No constants are given. Whether binding was seen depends on the method and setting. In cells and extracts the contact can be indirect. Some binding calls cover weakened binding; strength is not graded here.

The chains behind the UniProt entries cited, without tags or fusion partners.
UniProt Q9JIP4: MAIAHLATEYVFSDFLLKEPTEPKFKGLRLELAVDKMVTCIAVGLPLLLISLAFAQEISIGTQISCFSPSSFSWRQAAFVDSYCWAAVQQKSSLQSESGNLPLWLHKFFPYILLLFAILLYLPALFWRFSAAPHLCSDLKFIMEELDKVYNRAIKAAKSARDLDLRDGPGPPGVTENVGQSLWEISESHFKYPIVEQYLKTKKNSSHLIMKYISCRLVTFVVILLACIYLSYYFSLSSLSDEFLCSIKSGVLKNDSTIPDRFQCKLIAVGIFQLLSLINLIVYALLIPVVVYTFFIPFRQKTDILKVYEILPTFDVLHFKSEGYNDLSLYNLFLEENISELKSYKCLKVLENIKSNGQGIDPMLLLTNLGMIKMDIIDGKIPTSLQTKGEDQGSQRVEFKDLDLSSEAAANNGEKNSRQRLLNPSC

Target: T1, P2X7 receptor (mouse (endogenous in mouse long bone, MLO-Y4 and MOB-C cells)) (UniProt Q9Z1M0)
T1 sequence: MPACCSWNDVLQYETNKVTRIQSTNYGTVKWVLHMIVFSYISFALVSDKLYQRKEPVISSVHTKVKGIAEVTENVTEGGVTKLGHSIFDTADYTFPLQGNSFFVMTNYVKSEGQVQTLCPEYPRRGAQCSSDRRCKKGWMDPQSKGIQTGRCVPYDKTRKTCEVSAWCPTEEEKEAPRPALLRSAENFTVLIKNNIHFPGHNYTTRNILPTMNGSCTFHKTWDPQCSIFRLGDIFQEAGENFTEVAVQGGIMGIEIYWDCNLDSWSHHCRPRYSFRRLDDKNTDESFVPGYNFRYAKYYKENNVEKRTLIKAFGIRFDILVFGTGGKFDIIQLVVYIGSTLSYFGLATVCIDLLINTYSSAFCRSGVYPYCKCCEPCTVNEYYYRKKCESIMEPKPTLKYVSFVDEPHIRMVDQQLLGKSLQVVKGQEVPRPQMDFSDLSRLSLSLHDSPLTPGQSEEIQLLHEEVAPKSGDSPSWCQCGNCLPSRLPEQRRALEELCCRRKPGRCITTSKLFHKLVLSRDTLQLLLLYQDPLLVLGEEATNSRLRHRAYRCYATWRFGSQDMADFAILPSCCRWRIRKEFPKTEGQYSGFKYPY
Experiment: co-IP; lysates of long bone tissue, MLO-Y4 osteocytes and MOB-C osteoblasts, pre-cleared; P2X7R antibody (1 ug/ml) with Protein A agarose beads overnight at 4°C; five washes with 25 mM Tris HCl, 150 mM NaCl, 0.5% NP-40; blots with Panx1 and P2X7R antibodies; antibody omitted for negative controls

pannexin 1 (from UniProt Q9JIP4 1-426)
binding: binds
